In article PMC7346168, “Redox Conformation-Specific Protein–Protein Interactions of the 2-Cysteine Peroxiredoxin in Arabidopsis” (Antioxidants, 2020) one finds binding data, which are given here for 2 molecules.

The target of test [1] is T1, 2-cysteine peroxiredoxin A, wild type (2-CysPRXA WT) (Arabidopsis) (UniProt Q96291).
T1 sequence: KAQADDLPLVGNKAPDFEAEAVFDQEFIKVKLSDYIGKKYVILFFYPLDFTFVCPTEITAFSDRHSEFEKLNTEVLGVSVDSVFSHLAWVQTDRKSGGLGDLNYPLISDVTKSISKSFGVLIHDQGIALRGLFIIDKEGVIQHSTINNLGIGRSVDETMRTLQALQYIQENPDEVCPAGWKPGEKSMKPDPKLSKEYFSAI
As to the kind of experiment: ITC; CS, FD-GOGAT or ßCA1 injected into 2-CysPRXA WT or C54S; proteins redox-adjusted (10 mM DTT or 1 mM H2O2) and dialysed; 35 mM HEPES pH 8.0; redox state of these runs not told; both purified.

The target in test [2] is T2, 2-CysPRXA C54S (pseudo-reduced variant) (Arabidopsis) (UniProt Q96291).
T2 sequence: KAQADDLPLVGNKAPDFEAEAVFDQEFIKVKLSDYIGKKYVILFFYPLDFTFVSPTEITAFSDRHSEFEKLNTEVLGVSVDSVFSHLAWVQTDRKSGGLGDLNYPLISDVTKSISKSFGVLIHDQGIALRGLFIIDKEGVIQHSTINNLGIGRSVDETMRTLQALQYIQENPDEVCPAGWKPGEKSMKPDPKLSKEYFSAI
The test is described as above.

No constants are given. Whether binding was seen depends on the method and setting. For some assays here: Where a sequence is shown, tags or fusion partners need not be part of it.

As for “FERREDOXIN-… GLUTAMATE SYNTHASE 1, recombinant hisx6-tagged (from UniProt Q9ZNZ7 106-1622) (enzyme)”, in test [1], the binding result was “no binding”.

B1: CHORISMATE SYNTHASE, recombinant hisx6-tagged (enzyme, UniProt P57720 51-436)
chain: TGSSYGTHFRVSTFGESHGGGVGCIIDGCPPRIPLTESDLQFDLDRRRPGQSRITTPRKETDTCRISSGVSEGMTTGTPIHVFVPNTDQRGLDYSEMSVAYRPSHADATYDMKYGVRSVQGGGRSSARETIGRVAPGALAKKILKQFAGTEILAYVSQVHHVVLPEELVDHENLTLEQIENNIVRCPNPEYAEKMIAAIDAVRTKGNSVGGVVTCIVRNAPRGLGTPVFDKLEAELAKACMSLPATKGFEFGSGFAGTFLTGLEHNDEFYTDENGRIRTRTNRSGGIQGGISNGEIINMRVAFKPTSTIGRKQNTVTRDKVETEMIARGRHDPCVVPRAVPMVEAMVALVLVDQLMAQYAQCHLFPINPELQEPLQIEQPQNATAL
With B1, in test [2], the binding result is “no binding”.
